# Reference: PubChem BioAssay AID2685 (National Center for Advancing Translational Sciences (NCATS), 2010)
# This is one part of the list. Further columns of the screen follow, without active or inactive calls. Most of these compounds were active or inconclusive in the main read-out, so they are no random draw. Words in brackets tell the shape of the fitted curve; partial curves, single points and poor fits give uncertain potencies.
# Experiment: qHTS Assay for Lipid Storage Modulators in Drosophila S3 Cells;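 as to cell number change: cells counted by Cell Tracker Red CMTPX staining in the red channel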
# Settings: BODIPY lipid droplet fluorescence, 18-24 h; for cell number change: measured here: cell count max response, cells fed with added oleic acid
# Method in brief: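 Drosophila S3 cells loaded with oleic acid (400 uM, as added) and compounds at several concentrations; lipid droplets imaged by 488-nm laser-scanning cytometry, 500–530 nm intensity and object ratio to cell channel. Percent activity normalized to 20 uM Triacsin C.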
# [1] = measured here: lipid fluorescence (Fed channel) AC50, cells fed with added oleic acid
# [2] = measured here: cell number channel AC50, cells fed with added oleic acid
compound,measurement,setting,value
O=S(=O)(Nc1nccs1)c1ccc2c(c1)OCCO2,cell number change,,-2.67%
same,AC50,[1],"0.00461 µM [falling, full curve, poor fit]"
Cc1nc2cc(-c3ccsc3-n3c(C)ccc3C)[nH]n2c(=O)c1Cl,cell number change,,29.1%
same,AC50,[1],"0.82 µM [falling, full curve]"
CC(C)N1CC(COc2ccc(Cl)cc2Cl)OC1=O (configuration not stated),cell number change,,22.2%
same,AC50,[1],"2.31 µM [falling, partial curve]"
CCc1cccc(NC(=O)CCC(=O)N2CCSc3ccccc32)c1,cell number change,,6.05%
CCOc1ccc(C(=O)CCN2CCCCCC2)cc1,cell number change,,-35.2%
same,AC50,[2],"8.2 µM [falling, partial curve]"
same,AC50,[1],"16.4 µM [falling, partial curve]"
Cc1ccc2nc(NC(=O)CSCC(=O)OCC(=O)c3ccc(Br)cc3)sc2c1,cell number change,,37.1%
same,AC50,[2],"29.1 µM [rising, single point]"
same,AC50,[1],"13 µM [falling, partial curve, poor fit]"
CCOC(=O)N/N=C(C)/C=C/c1ccccc1,cell number change,,-3.18%
same,AC50,[1],"2.31 µM [rising, partial curve]"
COc1cc(Cl)c(C)cc1NC(=O)CSc1nnc(CCC(=O)O)c(=O)[nH]1,cell number change,,55.6%
same,AC50,[1],"3.26 µM [falling, single point]"
COc1ccc(CCNC(=O)c2cc(=O)[nH]c3ccccc23)cc1,cell number change,,8.57%
same,AC50,[1],"10.3 µM [rising, partial curve]"
CCc1ccccc1NC(=O)CNC(=O)c1ccc(-n2cncn2)c([N+](=O)[O-])c1,cell number change,,-25%
same,AC50,[1],"29.1 µM [falling, single point]"
CCOc1[nH]n(-c2ccccc2)c(=O)c1C=Nc1ccc(OC)cc1,cell number change,,43.3%
O=c1c2c3c(sc2nc(N2CCNCC2)n1-c1cccc(Cl)c1)CCCCC3,cell number change,,19.6%
same,AC50,[1],"6.51 µM [rising, full curve]"
Cc1cc(CNC(=O)c2cc(Br)ccc2Cl)nn1C,AC50,[2],"0.731 µM [rising, single point]"
O=C(CSc1nnc(-c2cccnc2)n1Cc1ccco1)c1ccc(Cl)cc1,cell number change,,-9.81%
CC1CCN(CCCOc2ccc(Cl)cc2Br)CC1,cell number change,,14.4%
same,AC50,[1],"29.1 µM [rising, single point]"
COC(=O)[C@H](CCSC)NC(=O)NCc1ccc(S(N)(=O)=O)cc1,cell number change,,-0.324%
COc1cccc(C(=O)CSc2nnc(CNS(=O)(=O)c3ccc(C)cc3)n2C)c1,AC50,[2],"6.51 µM [falling, single point]"
O=c1c2ccccc2n(Cc2cccc(F)c2)c(=O)n1C1CCCC1,cell number change,,-20.9%
same,AC50,[1],"29.1 µM [rising, single point]"
CCOC(=O)Cn1cc(C#N)c(=O)[nH]c1=O,cell number change,,-35.8%
same,AC50,[2],"4.61 µM [falling, full curve, poor fit]"
same,AC50,[1],"4.61 µM [falling, full curve, poor fit]"
Cc1[nH]n(-c2cccc(Cl)c2)c(=O)c1-c1ccccc1,cell number change,,-45.3%
same,AC50,[2],"9.2 µM [falling, partial curve, poor fit]"
same,AC50,[1],"16.4 µM [falling, single point]"
CCOc1cc(C(N)=O)cc(OCC)c1OCC,cell number change,,2.72%
same,AC50,[2],"0.651 µM [falling, partial curve, poor fit]"
COC(=O)c1c(N2C(=O)[C@H]3[C@@H](C2=O)[C@]2(C(=O)Nc4c(C)cccc42)N2CCC[C@@H]32)sc(C)c1C,cell number change,,0.643%
same,AC50,[1],"6.51 µM [rising, single point]"
O=C(COC(=O)c1cc2c(s1)CCCC2)NCc1ccccc1Cl,cell number change,,-28%
same,AC50,[1],"29.1 µM [falling, single point]"
Nc1nonc1-n1nnc(C(=O)N/N=C/c2ccccc2Cl)c1CSc1ccccc1,cell number change,,34.8%
same,AC50,[2],"0.146 µM [rising, full curve]"
same,AC50,[1],"0.146 µM [rising, full curve, poor fit]"
Cc1ccc(Cl)cc1-n1c(=O)cc(N2CC(C)OC(C)C2)[nH]c1=O (configuration not stated),AC50,[1],"29.1 µM [falling, single point]"
C/C(=N\NC(=O)CCc1ccc(S(=O)(=O)N2CCOCC2)cc1)c1ccc(OC(F)F)cc1,AC50,[1],"14.6 µM [falling, partial curve, poor fit]"
COc1ccc(C(C(=O)NC2CCCC2)N(Cc2ccc(C)cc2)C(=O)c2ccn[nH]2)cc1OC (configuration not stated),cell number change,,-16.4%
same,AC50,[1],"6.51 µM [falling, single point]"
Cc1ccc(C(=O)CN2CCN(c3ccccn3)CC2)c(C)c1,cell number change,,-12.5%
Cc1nc2scc(C)n2c(=O)c1S(=O)(=O)Nc1ccc(N2CCOCC2)c(Cl)c1,cell number change,,-1.32%
COc1ccc(OC)c(NC(=O)CCCCCn2nnc3ccccc3c2=O)c1,cell number change,,22.7%
same,AC50,[1],"18.4 µM [rising, single point]"
CCOc1ccccc1N1CCN(CC(=O)NCCc2ccc(S(N)(=O)=O)cc2)CC1,cell number change,,-22.5%
same,AC50,[2],"0.00461 µM [falling, full curve, poor fit]"
COc1cc(OC)c(C(=O)NCCCn2ccnc2)cc1OC,cell number change,,-4.48%
O=S(=O)(NCc1cc(-c2ccc(Cl)cc2)no1)c1ccc(Cl)cc1,cell number change,,-30.2%
same,AC50,[2],"18.4 µM [falling, single point]"
Cn1cc(S(=O)(=O)NCc2ccc(Cl)cc2)c(=O)n(C)c1=O,cell number change,,-23.7%
same,AC50,[1],"9.2 µM [falling, partial curve, poor fit]"
O=c1sc2ccccc2c(=O)n1Cc1ccccc1F,cell number change,,13.3%
same,AC50,[2],"0.0517 µM [falling, full curve, poor fit]"
Cc1c(C(=O)N2CCc3ccccc32)oc2c1C(=O)CC(C)(C)C2,AC50,[2],"4.61 µM [rising, single point]"
same,AC50,[1],"2.31 µM [rising, partial curve]"
Cc1ccccc1C(=O)NC1CCN(C(=O)Nc2ccccc2Cl)CC1,cell number change,,-39.1%
same,AC50,[2],"32.6 µM [falling, single point]"
O=C(NCCc1cccc(Cl)c1)c1cccnc1,AC50,[2],"6.51 µM [rising, partial curve, poor fit]"
O=C(NCCc1c[nH]c2ccccc12)c1cccnc1,cell number change,,25.8%
same,AC50,[2],"3.66 µM [rising, full curve, poor fit]"
same,AC50,[1],"0.146 µM [falling, full curve, poor fit]"

# Reprinted at random: 7 entries already listed, in no set order.
compound,measurement,setting,value
CCOC(=O)Cn1cc(C#N)c(=O)[nH]c1=O,AC50,[1],"4.61 µM [falling, full curve, poor fit]"
O=c1c2ccccc2n(Cc2cccc(F)c2)c(=O)n1C1CCCC1,AC50,[1],"29.1 µM [rising, single point]"
same,cell number change,,-20.9%
Cc1c(C(=O)N2CCc3ccccc32)oc2c1C(=O)CC(C)(C)C2,AC50,[2],"4.61 µM [rising, single point]"
Nc1nonc1-n1nnc(C(=O)N/N=C/c2ccccc2Cl)c1CSc1ccccc1,AC50,[2],"0.146 µM [rising, full curve]"
O=S(=O)(Nc1nccs1)c1ccc2c(c1)OCCO2,AC50,[1],"0.00461 µM [falling, full curve, poor fit]"
O=c1c2c3c(sc2nc(N2CCNCC2)n1-c1cccc(Cl)c1)CCCCC3,AC50,[1],"6.51 µM [rising, full curve]"
